From ChEMBL document CHEMBL4033761 (ACS Med Chem Lett, 2017)

How the values were obtained:
[1] = Distribution coefficient, log D of compound at pH 7.4; settings: octanol/water
[2] = Solubility of compound in DMSO

## NS1(=O)=NC(=O)c2ccccc21 (configuration not stated)
[1]
  logD: < -1.3
[2]
  solubility: > 1000 µM
